The list is a part of this screen's results and no random one: it gathers tests that were run many times, whatever their T/C, doses with no T/C, and many T/C values between a quarter and a half above the control. Other doses and runs of a compound stand elsewhere. T/C gives the treated animals as a percentage of the vehicle group. Some entries give survivors of the animals treated and no T/C: the source files T/C as zero there, which appears to mark a toxic dose or a test without result, not a measured value. Some doses without a T/C left all or most animals alive at the check, yet need not have been tolerated: the source hardly ever lists a survival T/C far under the control, and the zero likely stands for such cases as well. Counts of survivors are from the toxicity check (mostly the fifth day) where no day follows; animals may have died later. Schedule codes are those of the source, read here as Q, the interval in days (D) or hours (H), X, the number of doses. For survival time, the PubChem record calls one and a half times the control and up active, and a quarter to a half above the control has no call in these data; cut-offs in other NCI protocols can differ.
System: L1210 leukemia ip in BDF1 mice, survival T/C
Test: NCI In Vivo Anticancer Drug Screen. Data for tumor model L1210 Leukemia (intraperitoneal) in B6D2F1 (BDF1) mice
Conditions: T/C endpoint: mean survival time, higher T/C = longer survival
[1] = dose: 100.0 mg/kg/injection, schedule: Q01DX001 (ip), vehicle: saline
[2] = dose: 200.0 mg/kg/injection, schedule: Q01DX001 (ip), vehicle: saline
[3] = dose: 400.0 mg/kg/injection, schedule: Q01DX001 (ip), vehicle: saline
[4] = dose: 100.0 mg/kg/injection, schedule: Q01DX009 (ip), vehicle: saline with Tween-80
[5] = dose: 200.0 mg/kg/injection, schedule: Q01DX009 (ip), vehicle: saline with Tween-80
[6] = dose: 200.0 mg/kg/injection, schedule: Q04DX002 (ip), vehicle: Klucel (hydroxypropylcellulose) (HPC)
[7] = dose: 400.0 mg/kg/injection, schedule: Q04DX003 (ip), vehicle: Klucel (hydroxypropylcellulose) (HPC)
[8] = dose: 400.0 mg/kg/injection, schedule: Q01DX009 (ip), vehicle: saline with Tween-80
[9] = dose: 300.0 mg/kg/injection, schedule: Q01DX001 (ip), vehicle: saline
[10] = dose: 400.0 mg/kg/injection, schedule: Q04DX002 (ip), vehicle: saline
[11] = dose: 300.0 mg/kg/injection, schedule: Q01DX001 (ip), vehicle: other
[12] = dose: 400.0 mg/kg/injection, schedule: Q04DX003 (ip), vehicle: saline

## N#CC12OC1(C#N)C(=O)C=CC2=O (centres undefined)
[1]
  survivor count: 0 of 3
[2]
  survivor count: 0 of 3
[3]
  survivor count: 0 of 3

## O=C1CCCCc2c1ccc(O)c2[N+](=O)[O-]
[4]
  survivor count: 3 of 3
[5]
  survivor count: 0 of 3

## CCCOP(=O)(OCCC)C(OC(=O)C(C)(C)C)=C(C)C
dose: 400.0 mg/kg/injection, schedule: Q04DX003 (ip), vehicle: saline with Tween-80
  survivor count: 0 of 6

## CNC(=O)Nc1nc2ccccc2s1
[6]
  survivor count: 3 of 3

## NC(Cc1ccc(O)cc1)C(=O)N/N=C/c1ccc(N(CCCl)CCCl)cc1 (centres undefined)
dose: 200.0 mg/kg/injection, schedule: Q01DX009 (ip), vehicle: Klucel (hydroxypropylcellulose) (HPC)
  T/C: 128 % of control
[7]
  T/C: 129 % of control

## O=C1C=CCC2c3nc4ccccc4cc3CN12 (centres undefined)
dose: 300.0 mg/kg/injection, schedule: Q04DX003 (ip), vehicle: saline
  survivor count: 1 of 6

## CCOC(=O)c1c[nH]n2c(=S)ncnc12
[8]
  survivor count: 3 of 6

## c1ccc([P+](Cc2cccc3c2Cc2ccccc2-3)(c2ccccc2)c2ccccc2)cc1
dose: 30.0 mg/kg/injection, schedule: Q01DX001 (ip), vehicle: carboxymethylcellulose (CMC)
  survivor count: 3 of 6
dose: 60.0 mg/kg/injection, schedule: Q01DX001 (ip), vehicle: carboxymethylcellulose (CMC)
  survivor count: 1 of 6
dose: 75.0 mg/kg/injection, schedule: Q01DX001 (ip), vehicle: carboxymethylcellulose (CMC)
  survivor count: 0 of 6
dose: 150.0 mg/kg/injection, schedule: Q01DX001 (ip), vehicle: carboxymethylcellulose (CMC)
  survivor count: 1 of 6
dose: 300.0 mg/kg/injection, schedule: Q01DX001 (ip), vehicle: carboxymethylcellulose (CMC)
  survivor count: 0 of 6

## CN1CCN(CCSC(=O)C(O)(c2ccccc2)C2CCCC2)CC1 (centres undefined)
dose: 75.0 mg/kg/injection, schedule: Q01DX001 (ip), vehicle: saline
  survivor count: 2 of 6
[9]
  survivor count: 0 of 6

## CCCOP(=S)(NCCCOC)OCCC
dose: 400.0 mg/kg/injection, schedule: Q01DX001 (ip), vehicle: other
  survivor count: 6 of 6

## CCC[n+]1cccc(C#N)c1
dose: 150.0 mg/kg/injection, schedule: Q04DX003 (ip), vehicle: saline
  survivor count: 3 of 6
[9]
  survivor count: 0 of 6

## O=C(OCc1ccccc1)C1CCCN1 (centres undefined)
[10]
  survivor count: 0 of 3

## CC1(C)Oc2[nH]c(=O)n(-c3ccccc3)c(=O)c2C1c1ccc(Cl)cc1 (centres undefined)
dose: 50.0 mg/kg/injection, schedule: Q04DX003 (ip), vehicle: acetone
  survivor count: 6 of 6
[1]
  survivor count: 6 of 6
[2]
  survivor count: 6 of 6
[3]
  survivor count: 0 of 6

## C[n+]1c2c(cc3ccccc31)CCC2
[4]
  survivor count: 1 of 3
[5]
  survivor count: 0 of 3

## C=C1C(=O)OC2CCC(O)C12 (centres undefined)
[2]
  survivor count: 1 of 7

## C(=N\Nc1ccc2ccccc2n1)/c1ccccn1
dose: 150.0 mg/kg/injection, schedule: Q01DX001 (ip), vehicle: other
  survivor count: 0 of 6
[11]
  survivor count: 0 of 6

## COC(C#N)(Cc1ccccc1)Cc1ccccc1
[11]
  survivor count: 0 of 6

## CC12CC3CC(C)(C1)CC(SC(=N)N)(C3)C2
dose: 100.0 mg/kg/injection, schedule: Q04DX002 (ip), vehicle: Klucel (hydroxypropylcellulose) (HPC)
  survivor count: 0 of 3
[6]
  survivor count: 0 of 3
dose: 400.0 mg/kg/injection, schedule: Q04DX002 (ip), vehicle: Klucel (hydroxypropylcellulose) (HPC)
  survivor count: 0 of 3

## OC[P+](c1ccccc1)(c1ccccc1)c1ccccc1
[12]
  survivor count: 6 of 6

## O=C1OC(=O)C(Br)=C1Br
dose: 100.0 mg/kg/injection, schedule: Q04DX002 (ip), vehicle: saline
  T/C: 125 % of control
[10]
  survivor count: 0 of 3
[12]
  survivor count: 2 of 6

## O=Nc1c(O)ccc2ccccc12
dose: 50.0 mg/kg/injection, schedule: Q01DX009 (ip), vehicle: Klucel (hydroxypropylcellulose) (HPC)
  survivor count: 6 of 6
[1]
  survivor count: 2 of 4
dose: 100.0 mg/kg/injection, schedule: Q01DX009 (ip), vehicle: Klucel (hydroxypropylcellulose) (HPC)
  survivor count: 1 of 6
[2]
  survivor count: 0 of 4
[3]
  survivor count: 0 of 4

## CCOC(=O)NCS(=O)(=O)c1ccccc1-c1ccccc1
[7]
  survivor count: 2 of 6

## O=[N+]([O-])c1cccc(C=Nc2ccccc2Cl)c1
dose: 200.0 mg/kg/injection, schedule: Q01DX001 (ip), vehicle: Klucel (hydroxypropylcellulose) (HPC)
  survivor count: 6 of 6

## O=C(O)c1ccc([N+](=O)[O-])o1
[8]
  survivor count: 0 of 6
dose: 400.0 mg/kg/injection, schedule: Q04DX003 (ip), vehicle: other
  survivor count: 0 of 6

## CCC(C)C(C(=O)OC1CCN(CC)CC1)c1ccccc1 (centres undefined)
dose: 200.0 mg/kg/injection, schedule: Q04DX003 (ip), vehicle: saline
  survivor count: 5 of 6
[12]
  survivor count: 0 of 6

## Cc1cc(C)c(C)[nH]1
dose: 25.0 mg/kg/injection, schedule: Q01DX009 (ip), vehicle: water
  survivor count: 1 of 6
dose: 100.0 mg/kg/injection, schedule: Q01DX009 (ip), vehicle: water
  survivor count: 2 of 6
dose: 200.0 mg/kg/injection, schedule: Q01DX009 (ip), vehicle: water
  survivor count: 0 of 6
dose: 400.0 mg/kg/injection, schedule: Q01DX009 (ip), vehicle: water
  survivor count: 0 of 6

Reference: PubChem BioAssay AID248 (DTP/NCI, 2004)
